# The list shows a part of the results. These are further read-outs of the screen, such as a control signal, another cell line or another target. No call is given for them. Compounds called inactive in the main read-out are mostly missing here. The note in brackets gives the kind of curve behind each potency; many fits are weak.
# Test: Cell signaling CRE-BLA (Fsk stim)
# Details: CHO CRE-bla reporter (cAMP response element driving beta-lactamase), forskolin EC10, beta-lactamase ratio; measured here: 460 nm blue channel
# How it was run: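 Titrated compounds plus EC10 NKH 477 on CHO CRE-bla cells, 3 h, 37 °C. CCF4, 2 h RT. Ratio 460/530 nm → AC50.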
row,Structure (SMILES),AC50
1,Cn1c(=O)c2cc(S(=O)(=O)NCCC(=O)NCC3CCCO3)ccc2n(C)c1=O (stereo not drawn),"0.2 µM [rising, full curve]"
2,O=C(Cn1c(=O)sc2ccccc21)Nc1ccc(S(=O)(=O)N2CCCC2)cc1,"0.398 µM [falling, single point]"
3,Cc1ccc(-c2noc(CN(C(=O)c3cccc(Br)c3)C(C)C)n2)cc1,"12.6 µM [falling, partial curve]"
4,COc1ccc(NC(=O)CSc2nnc(Cc3cccn3C)n2-c2ccc(C)cc2)cc1OC,"7.94 µM [falling, partial curve]"
5,COc1ccc(-c2nc3cnc(N4CCNCC4)nc3n(C)c2=O)cc1,"5.01 µM [rising, partial curve]"
6,O=C(CCn1nc(-c2ccc(Cl)cc2)ccc1=O)NCCCN1CCCCCC1,"25.1 µM [rising, single point]"
7,COC(=O)c1cc(OC)c(OC)cc1-n1cnc2cc(OC)c(OC)cc2c1=O,"15.8 µM [rising, single point]"
8,COc1ccccc1NC(=O)c1sc2nc(-c3ccco3)ccc2c1N,"12.6 µM [falling, partial curve]"
9,CCCCn1c(SCC(=O)Nc2cccc(OC)c2)nc2ccc(N3CCOCC3)cc2c1=O,"10 µM [rising, single point]"
10,C/C=C/COC(=O)c1[nH]c2c(c1C)C(=O)CC(c1ccco1)C2 (stereo not drawn),"1.26 µM [rising, full curve]"
11,COc1ccc(-n2c(NC(=O)c3ccco3)c(C#N)c3nc4ccccc4nc32)cc1,"7.94 µM [rising, partial curve]"
12,CN(CC(=O)Nc1ccc(F)c(F)c1)S(=O)(=O)c1cccc2nsnc12,"2.51 µM [falling, single point]"
13,COc1ccc(-n2ncc3c(NCc4cccs4)ncnc32)cc1,"7.94 µM [rising, partial curve]"
14,CC1(C)CC(=O)CC(=Nc2ccc3[nH]c(=O)[nH]c3c2)C1,"3.98 µM [rising, single point]"
15,O=C(CSc1nc(-c2ccco2)cc(C(F)(F)F)n1)Nc1ccc(C(=O)N2CCCCC2)cc1,"12.6 µM [rising, partial curve]"
16,Cc1ccc(-c2ccc(=O)n(CC(=O)Nc3cccc(C(=O)N4CCN(C)CC4)c3)n2)cc1,"25.1 µM [rising, single point]"
17,CN(Cc1ccco1)c1nc(-c2cccnc2)nc2ccccc12,"5.01 µM [rising, full curve]"
18,CCCc1nc2ccccc2c(C(=O)OCc2nnc(-c3cc(OC)c(OC)c(OC)c3)o2)c1CC,"1 µM [rising, single point]"

# A different layout for two compounds above:
row | Structure (SMILES) | AC50
16 | Cc1ccc(-c2ccc(=O)n(CC(=O)Nc3cccc(C(=O)N4CCN(C)CC4)c3)n2)cc1 | 25.1 µM [rising, single point]
17 | CN(Cc1ccco1)c1nc(-c2cccnc2)nc2ccccc12 | 5.01 µM [rising, full curve]
